From ChEMBL document CHEMBL3988442, “University of Dundee, Small-Polar-MMV Screening Library” (2021).

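Whole-cell growth test on Mycobacterium tuberculosis, read after 4 days in a medium based on cholesterol and the lipid DPPC; the read-out is not stated. Tested at 50 µM. Higher reads as more growth inhibition (inferred: compounds with an IC50 in retests scored well above the rest). Of about 69,000 compounds tested this way, about 370 (0.54%) reached 50% or more in at least one test.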

Results are given as percent effect.
The controls that fix the scale are not given in the record; negative values are as filed.
This is an unselected part of the compounds tested.
Two or more numbers in one place are separate tests of the same structure; such repeats can differ widely.

* Cc1ccc(CNc2n[nH]c(C)n2)cc1 : 3.881%
* COCC1CC2(CCN(C(C)=O)CC2)CN1Cc1csc(C)n1.O=C(O)C(F)(F)F (centres unmarked) : 10.33%
* CC(Cn1cccn1)NCc1cnc(N2CCCC2)nc1 (centres unmarked) : 2.567%
* OCCc1ncnn1Cc1cccc(Cl)c1 : -54.4%
* [H][C@@]12CS(=O)(=O)C[C@]1([H])N(C(=O)c1cc(C(C)C)no1)CCN2CC=C(C)C : 7.499%
* [H][C@@]12OCCN(C(=O)c3ccc(OC)c(F)c3)[C@@]1([H])CC[C@H]2OCC1CC1 : 8.765%
* Cc1cnn(CC2CCCN2C(=O)Cc2cccs2)c1 (centres unmarked) : -19.17%
* Cc1cc(-c2cnn(CCNC(=O)c3cnn(C)c3)c2C2CC2)on1 : -19.77%
* Cc1nn(C)c(N(C)C)c1CNCc1ccc(N(C)C)nc1 : 18.56%
* CN(C)CCN(Cc1ccccc1)C(=O)C1=NNC(=O)CC1 : 19.5%
* CNC(=O)CN1CCC(c2cc(OC)cc(OC)c2)C1 (centres unmarked) : -5.465%
* CC(C)(C#N)C(=O)Nc1nccn1Cc1ccc(Br)cc1 : 5.156%
* [H][C@@]12CCN(S(=O)(=O)CC)C[C@]1(c1nnc(C)o1)CCO2 : -2.055%
* O=C(O)C(F)(F)F.[H][C@]12CCN(c3ccc(C)nn3)C[C@@]1([H])CN(Cc1cccnc1OC)C2 : -31.86%
* Cc1ccc(C(=O)NS(C)(=O)=O)cc1I : -4.542%
* CCCNC(=O)N1CCc2ccc(S(=O)(=O)N3CCN(C)CC3)cc2C1 : 9.819%
* COc1ccc(-n2cccn2)cc1S(=O)(=O)N1C[C@H](C2CC2)[C@@H](N)C1 : 28.12%
* CC1CCN(C(=O)CSc2nc3c(cnn3CCO)c(=O)[nH]2)CC1 : -44.96%
* Cc1ccc(N2CCC(CCN3CCCC3=O)CC2)nn1 : 2.468%
* CC1(C)CC(N2Cc3nc(N4CCOCC4)ncc3C2=O)CC(C)(C)N1 : -6.725%
* Cc1nn(C)c(N(C)C)c1CNCc1ccc(C(=O)N(C)C)cc1 : -11.95%
* CN1C(=O)C(C)(C)COc2ccc(NS(=O)(=O)Cc3ccccc3)cc21 : -13.72%
* CC(C)CNC(=O)c1ccc2c(c1)nc1n2CCN(Cc2ccco2)C1 : 8.461%
* O=C(CC(SC1CCCCC1)C(=O)O)c1ccc(Cl)cc1 (centres unmarked) : -0.1851%
* NC(=O)Cn1cc(NC(=O)N2CCCC2)cn1 : -10.02%
* CCOC(=O)C1CCN(CCCc2nnnn2-c2ccccc2)CC1 : 0.3444%
* CCOC(C)c1noc(CN(C)C(=O)C2C(C)(C)C2(C)C)n1 (centres unmarked) : 17.35%
* Cc1ccc(-c2cn3c(n2)CO[C@@H](CNCc2cccnc2)C3)cc1 : 12.71%
* COc1ncccc1NC(=O)N1CCC(CNC(C)=O)CC1 : -15.73%
* Cn1cc(CCCNC(=O)NC2CCN(c3ccccc3)C2=O)cn1 (centres unmarked) : 2.671%
* c1cc(C2CN(C3CCCC3)C2)n[nH]1 : -1.408% & -17.45%
* CC1(C(=O)NCc2ccsc2)CCOCC1 : -8.132%

Repeated from the top, 4 entries:

With Cc1ccc(CNc2n[nH]c(C)n2)cc1 the screen gave 3.881%.
With COCC1CC2(CCN(C(C)=O)CC2)CN1Cc1csc(C)n1.O=C(O)C(F)(F)F (centres unmarked) the screen gave 10.33%.
With CC(Cn1cccn1)NCc1cnc(N2CCCC2)nc1 (centres unmarked) the screen gave 2.567%.
With OCCc1ncnn1Cc1cccc(Cl)c1 the screen gave -54.4%.